Experimental data as given in paper PMC11096359.
These are yes or no findings as the source states them, for the method shown. In cells and extracts the contact can be indirect. Some results given as binding are weak or reduced against the parent protein; the word gives no strength.

Amino acid sequences for entries named in this document (tags omitted). A change or cut given only in a name is not applied to a line headed by its entry. Chains listed by the source or under a name are the forms on record and can include a tag or linker.
UniProt Q14258: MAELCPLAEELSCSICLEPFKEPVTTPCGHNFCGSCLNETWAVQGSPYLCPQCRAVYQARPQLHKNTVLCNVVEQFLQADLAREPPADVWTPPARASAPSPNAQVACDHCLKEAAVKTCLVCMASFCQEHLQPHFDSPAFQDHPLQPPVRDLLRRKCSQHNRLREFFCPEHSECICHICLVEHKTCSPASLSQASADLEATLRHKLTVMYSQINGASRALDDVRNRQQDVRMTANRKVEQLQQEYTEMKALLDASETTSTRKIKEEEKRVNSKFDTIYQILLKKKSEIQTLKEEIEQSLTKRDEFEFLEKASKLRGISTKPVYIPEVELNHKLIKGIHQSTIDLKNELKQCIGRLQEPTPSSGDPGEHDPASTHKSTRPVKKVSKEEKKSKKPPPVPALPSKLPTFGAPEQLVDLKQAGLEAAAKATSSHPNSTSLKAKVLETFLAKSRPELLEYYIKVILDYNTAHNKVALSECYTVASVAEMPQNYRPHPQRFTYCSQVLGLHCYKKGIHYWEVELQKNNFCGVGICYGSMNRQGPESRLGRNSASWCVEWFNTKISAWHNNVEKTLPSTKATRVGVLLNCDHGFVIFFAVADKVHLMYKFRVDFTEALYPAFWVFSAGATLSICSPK
mCherry-TRIM25 ΔPTFG (Q14258, form named): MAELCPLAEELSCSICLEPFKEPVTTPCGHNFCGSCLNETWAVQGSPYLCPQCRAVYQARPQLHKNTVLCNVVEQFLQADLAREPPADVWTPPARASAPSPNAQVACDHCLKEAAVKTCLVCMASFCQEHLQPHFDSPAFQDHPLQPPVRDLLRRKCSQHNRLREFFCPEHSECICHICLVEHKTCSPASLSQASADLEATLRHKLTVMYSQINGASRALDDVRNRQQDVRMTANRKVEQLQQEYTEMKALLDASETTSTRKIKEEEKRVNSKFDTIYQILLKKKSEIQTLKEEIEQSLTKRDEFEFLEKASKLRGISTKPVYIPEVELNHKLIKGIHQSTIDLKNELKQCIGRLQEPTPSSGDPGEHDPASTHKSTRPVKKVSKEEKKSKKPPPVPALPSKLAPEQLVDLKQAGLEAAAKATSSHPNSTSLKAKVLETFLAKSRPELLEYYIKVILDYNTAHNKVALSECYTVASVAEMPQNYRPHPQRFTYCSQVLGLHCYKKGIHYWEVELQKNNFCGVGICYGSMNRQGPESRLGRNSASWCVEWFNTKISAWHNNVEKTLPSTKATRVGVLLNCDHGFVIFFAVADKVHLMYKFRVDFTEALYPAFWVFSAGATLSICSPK
mCherry-TRIM25 PTFG^AAAA (Q14258, form named): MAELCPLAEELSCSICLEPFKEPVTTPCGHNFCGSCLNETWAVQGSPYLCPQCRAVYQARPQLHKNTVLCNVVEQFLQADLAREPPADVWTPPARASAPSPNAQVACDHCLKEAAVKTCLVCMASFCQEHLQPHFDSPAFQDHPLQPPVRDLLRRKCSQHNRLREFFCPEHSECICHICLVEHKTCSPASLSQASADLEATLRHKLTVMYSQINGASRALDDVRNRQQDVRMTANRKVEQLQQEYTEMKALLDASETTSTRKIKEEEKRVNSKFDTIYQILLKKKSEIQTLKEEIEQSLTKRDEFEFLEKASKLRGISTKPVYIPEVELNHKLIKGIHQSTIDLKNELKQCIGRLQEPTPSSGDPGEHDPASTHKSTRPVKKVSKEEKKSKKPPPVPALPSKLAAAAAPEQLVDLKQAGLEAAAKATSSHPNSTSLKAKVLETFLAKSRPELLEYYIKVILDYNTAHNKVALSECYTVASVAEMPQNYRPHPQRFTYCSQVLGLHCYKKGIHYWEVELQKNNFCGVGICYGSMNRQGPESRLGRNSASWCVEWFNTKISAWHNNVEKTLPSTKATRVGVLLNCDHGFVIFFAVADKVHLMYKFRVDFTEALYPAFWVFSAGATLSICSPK
UniProt Q13283: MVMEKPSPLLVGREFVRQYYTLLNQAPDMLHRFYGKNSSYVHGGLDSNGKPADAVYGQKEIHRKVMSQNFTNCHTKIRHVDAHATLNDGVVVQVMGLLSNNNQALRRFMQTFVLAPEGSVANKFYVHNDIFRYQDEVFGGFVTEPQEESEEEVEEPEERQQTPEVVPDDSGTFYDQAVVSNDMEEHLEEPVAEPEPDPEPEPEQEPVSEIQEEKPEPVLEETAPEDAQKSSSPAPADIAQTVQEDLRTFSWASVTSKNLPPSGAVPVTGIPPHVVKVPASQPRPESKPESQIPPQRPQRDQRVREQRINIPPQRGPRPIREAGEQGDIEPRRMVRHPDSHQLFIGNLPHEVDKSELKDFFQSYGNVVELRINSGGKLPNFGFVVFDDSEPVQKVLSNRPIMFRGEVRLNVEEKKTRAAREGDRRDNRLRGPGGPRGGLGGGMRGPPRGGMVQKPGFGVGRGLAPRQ

Assays:
[1] = molecular target: mCherry-TRIM25 ΔPTFG (human) (UniProt Q14258); assay: co-IP; HEK293T transfected with mCherry-TRIM25 FL or mutants for 24 h; lysates precipitated with mCherry beads, immunoblot
[2] = molecular target: mCherry-TRIM25 FL (human) (UniProt Q14258); assay: as above
[3] = molecular target: mCherry-TRIM25 PTFG^AAAA (human) (UniProt Q14258); assay: as above
[4] = molecular target: endogenous TRIM25 (human (endogenous in HEK293T)) (UniProt Q14258); assay: co-IP; endogenous proteins, precipitated with an antibody against TRIM25; with or without poly(I:C)

binding [1]: no binding
binding [2]: binds
binding [3]: no binding
binding [4]: binds
Substance: endogenous G3BP1 (from UniProt Q13283 1-466)
